Test results reported in US10973867B2, “Compositions and methods for treating retinopathy” (Marshall University Research Corporation, priority 2015, dated 2021).

Columns and labels:
[1] = system: human retinal microvascular endothelial cells (HRMECs); assay: BrdU assay, proliferation of HRMECs; assay type: cell-based; conditions: 24 hours; pNaKtide at 0.5, 1 and 5 micromolar, dose dependent
Experimental: To measure the effect of increased pNaKtide on HRMECs, cells were incubated with bromodeoxyuridine (BrdU), a nucleotide analog that is incorporated during S-phase in the DNA of proliferating cells. After overnight incubation, the cells were treated with 0.1 μM, 1 μM, and 5 μM of pNaKtide for 24 hours. The number of BrdU positive cells were then counted as an indication of cell proliferation.
Normal human primary retinal endothelial cells (HRMECs) were purchased from Cell Systems, WA. They were maintained in endothelial basal medium (EBM) containing growth factors and supplemented with 5% fetal bovine serum (FBS), prepared according to the manufacturer's protocol (referred hereafter as EGM-2 complete media). The EBM medium and supplements were purchased from Lonza (Basel, Switzerland). All experiments using HRMECs were performed between passages 3-8. […]
After overnight incubation at 37° C., the media was changed to EGM-R media. […] The rate of BrdU incorporation was measured by the BrdU kit (Roche Biochemicals, Indianaplis, Ind., USA), according to manufacturer's instructions. The number of BrdU positive cells was counted in three independent fields per sample. […] The relative number of BrdU positive cells in the peptide-treated HRMECs was calculated as a fraction of the BrdU-incorporated HRMECs. […]

HRMECs = assay: Matrigel assay, angiogenic capillary tube formation of HRMECs; assay type: cell-based, human; conditions: 24 hours
Experimental: Normal human primary retinal endothelial cells (HRMECs) were purchased from Cell Systems, WA. They were maintained in endothelial basal medium (EBM) containing growth factors and supplemented with 5% fetal bovine serum (FBS), prepared according to the manufacturer's protocol (referred hereafter as EGM-2 complete media). The EBM medium and supplements were purchased from Lonza (Basel, Switzerland). All experiments using HRMECs were performed between passages 3-8. During experiments, HRMECs were incubated in EGM-2 reduced media (referred hereafter as EGM-R media), which was comprised of EBM media containing ¼ the concentration of growth factors and 0.5% FBS.
To measure the effect of increase pNaKtide on HRMECs, cells were treated to promote differentiation of the cells into capillary tube-like structures. Cells were subsequently harvested, seeded on polymerized matrigel and supplemented with 0.5 μM, 1 μM, and 5 μM of pNaKtide and incubated for 24 hours. Further investigation of the effect of pNaKtide on angiogenesis and VEGF expression was performed in tumor xenograft models as described herein.
Growth Factor Reduced (GFR)-Matrigel (BD Biosciences, Bedford, Mass.) was used to promote the differentiation of HRMECs' into capillary tube-like structures. […]

VEGF = VEGF expression in tumor xenograft homogenates (Western blot); assay type: in vivo, NOD SCID mice
Experimental: (§1) Tumor xenografts were established by subcutaneous injection of 5×10^6DU145 cells into the left and right flanks for 6-week-old female NOD SCID mice (Charles River). When tumors reaches an average volume of 100 mm^3, mice were injected intraperitoneally (IP) with saline or pNaKtide (at doses of 2 mg/kg and 10 mg/kg body weight) every other day for five times. Tumors from control and pNaKtide-treated mice were analyzed for the ability of pNaKtide to inhibit in vivo angiogenesis. The tumors were immunostained with an antibody against CD-31 to identify vessels. A goat polyclonal anti-CD31 antibody and ImmPRESS Reagent anti-goat Ig peroxidase were used. Negative controls were performed by replacing primary antibody with normal goat immunoglobulins. Then, the CD-31 positive regions were quantified using Image J, and vascularity density was calculated as the percent of tumor tissue area occupied by vessels. The production of VEGF was also evaluated by Western blotting using anti-VEGF antibody.

DU145 tumor xenografts = assay: Vessel density of xenograft tumors (IHC staining of CD31); assay type: in vivo, NOD SCID mice
Experimental: as §1

retinal vasculature = assay: Mouse model of oxygen-induced retinopathy (OIR), retinal neovascularization and vaso-obliteration; assay type: in vivo, mice (C57BL/6); conditions: intravitreous injection of 1 μl pNaKtide (0.25 μg/μl) at P12, read at P17
Experimental: The effects of pNaKtide on neovascularization were also assessed in a mouse model of oxygen-induced retinopathy (OIR) according to the protocol developed in the laboratory of Smith. Briefly, litters of mice pups at postnatal day (P) 7 (C57BL/6, n=9) with their mothers were exposed in a chamber (BioSpherix Proox Model 110 Hyperoxia, BioSpherix, Ltd.) to high oxygen concentrations (75%±2%) for 5 days. At P12, mice were anesthetized by intraperitoneal injection of ketamine and xylazine mixture. pNaKtide was then dissolved in PBS at 0.25 μg/μl, and intravitreal injections were performed using a microsyringe (NanoFil syringe; World Precision Instruments, Inc., Sarasota, Fla., USA). pNaKtide (1 μl) was injected into the right eye, while the left eye was served as a control. Mice were killed at P17. The eyes were harvested immediately and fixed in 4% PFA for 1 h at room temperature. The retinae were dissected under a dissection microscope and stained with lectin solution that specifically binds to endothelial cells (Isolectin B4-594, Alexa Fluor 594-I21413, Molecular Probes). Under a dissection microscope, the stained retinae were cut four incisions and flat mounted.
Images of the retinal vasculature were then obtained with Zeiss fluorescent microscope and then multiple images from the same retinae were analyzed for vascular loss and neovascularization using Photoshop and Image J software. […]

Sequence: GRKKRRQRRRPPQSATWLALSRIAGLCNRAVFQ (TAT NaKtide Fusion Polypeptide) [pNaKtide]
- proliferation of HRMECs (BrdU positive cells) [1]: potently suppressed the proliferation
- angiogenic sprouting of HRMECs on Matrigel (HRMECs; 0.5 μM, 1 μM and 5 μM pNaKtide, concentration dependent): decrease in angiogenic sprouting
- concentration of maximal anti-angiogenic effect (HRMECs; Matrigel assay, HRMECs): 5 µM
- inhibition of VEGF expression (VEGF; 10 mg/kg every two days, i.p.): about 50%
- reduction in total VEGF (VEGF; tumor homogenates, Western blot, 2 or 10 mg/kg every two days, intraperitoneally): greater than 50%
- reduction in new blood vessel formation (DU145 tumor xenografts; 10 mg/kg every two days, i.p.): 70%
- vessel density (percent of tumor area occupied by vessels) (DU145 tumor xenografts; 10 mg/kg pNaKtide group, control mice approximately 10%): approximately 2.5%
- retinal neovascularization (retinal vasculature; vs OIR control eye): decreased the amount of neovascularization
- retinal vaso-obliteration area of the total retina (retinal vasculature; vs control treatment): reduced both the neovascular and retinal vaso-obliteration area
